In article PMC6788708 one finds binding data, which are given here for 8 molecules.

By UniProt entry, the sequences of proteins in these tests, tags left out.
UniProt P73407: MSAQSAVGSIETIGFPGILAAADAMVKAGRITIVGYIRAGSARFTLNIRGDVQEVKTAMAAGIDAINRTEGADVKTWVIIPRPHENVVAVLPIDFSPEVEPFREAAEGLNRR

These are yes or no findings as the source states them, for the method shown. For some assays here: In cells and extracts the contact can be indirect. Some results given as binding are weak or reduced against the parent protein; the word gives no strength. Where a sequence is shown, tags or fusion partners need not be part of it.

Assay [1] has as its target T1, CcmK1-His4 (Synechocystis sp. PCC6803 CcmK1, C-ter His4 tag) (Synechocystis sp. PCC6803) (UniProt P72760).
T1 sequence: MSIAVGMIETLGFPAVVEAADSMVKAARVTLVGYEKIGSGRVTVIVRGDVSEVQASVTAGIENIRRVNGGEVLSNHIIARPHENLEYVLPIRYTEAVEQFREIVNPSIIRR
The assay can be described thus: pull-down; couples of His4- and FLAG-tagged Syn6803 CcmK co-expressed in E. coli BL21(DE3) (two-cassette pET26b plasmid, IPTG); soluble fraction on cobalt TALON resin in 20 mM NaPi, 300 mM NaCl, 10 mM imidazole, pH 8.0, eluted with 300 mM imidazole; Coomassie SDS-PAGE and anti-FLAG western blot of purified fractions. In general terms: In western blotting, separated proteins are transferred to a membrane and probed.

Assay [2] concerns the target T2, CcmK2-His4 (Synechocystis sp. PCC6803 CcmK2, C-ter His4 tag) (Synechocystis sp. PCC6803) (UniProt P72761).
T2 sequence: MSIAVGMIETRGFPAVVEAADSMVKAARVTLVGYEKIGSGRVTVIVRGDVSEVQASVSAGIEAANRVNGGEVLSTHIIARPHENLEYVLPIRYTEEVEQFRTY
The assay is described as above.

For assay [3], the target named is T3, CcmK4-His6 (Synechococcus elongatus PCC7942 CcmK4, C-ter His6 tag) (Synechococcus elongatus PCC7942) (UniProt Q31RK2).
T3 sequence: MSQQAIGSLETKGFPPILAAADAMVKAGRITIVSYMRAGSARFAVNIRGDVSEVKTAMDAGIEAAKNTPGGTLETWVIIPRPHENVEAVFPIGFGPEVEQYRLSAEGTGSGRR
The assay can be described thus: pull-down; Syn7942 CcmK3 and CcmK4 with His6 and FLAG tags co-expressed in E. coli (IPTG 200 uM or auto-induction); TALON purification; Coomassie SDS-PAGE and anti-FLAG western blot.

Assay [4] deals with T4, His6-CcmK4 (Synechococcus elongatus PCC7942 CcmK4, N-ter His6 tag) (Synechococcus elongatus PCC7942) (UniProt Q31RK2).
T4 sequence: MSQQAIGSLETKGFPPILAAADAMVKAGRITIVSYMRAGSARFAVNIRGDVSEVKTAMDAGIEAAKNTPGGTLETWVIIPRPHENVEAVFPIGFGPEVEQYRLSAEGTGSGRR
The assay is described as above.

The target in assay [5] is His4-CcmK4 (Synechocystis sp. PCC6803 CcmK4, N-ter His4 tag) (Synechocystis sp. PCC6803) (UniProt P73407). Briefly: SEC; TALON-purified co-expressed samples; Beckman Ultraspherogel SEC2000, 20 mM Tris-HCl, 300 mM NaCl, pH 7, 1 mL/min; both purified. In general terms: Size exclusion chromatography separates by hydrodynamic size, large species first.
The target in assay [6] is CcmK4-His4 (Synechocystis sp. PCC6803 CcmK4, C-ter His4 tag) (Synechocystis sp. PCC6803) (UniProt P73407). Briefly: pull-down; four CcmK with His4, StrepTag, FLAG and HA tags co-expressed in E. coli BL21(DE3) (four-cassette plasmid, IPTG or auto-induction); TALON purification; Coomassie and western blots with streptactin-AP, anti-FLAG, anti-HA.
The target in assay [7] is His4-CcmK4 (Synechocystis sp. PCC6803 CcmK4, N-ter His4 tag) (Synechocystis sp. PCC6803) (UniProt P73407). Described as above.
The target is the same in assay [8]. Briefly: pull-down; purified His4-K4/K3-FLAG (7 uM) incubated overnight at room temperature at pH 5, 7 or 9 (50 mM NaPi or NaAcetate, 100 mM NaCl, 100 mM ammonium sulfate), with or without 14% PEG 3350; then bound to TALON resin, anti-FLAG western blot; both purified.
The target is the same in assay [9]. Briefly: pull-down; purified doubly tagged His4/FLAG homo- or hetero-hexamer (2 uM) in 50 mM NaPi pH 8.0, 100 mM NaCl, 0.15 mg/mL BSA, overnight at room temperature without or with untagged K1 or K4 (6 uM); then bound to TALON resin, anti-FLAG western blot; both purified.
For assay [10] the target is unchanged. Briefly: pull-down; couples of His4- and FLAG-tagged Syn6803 CcmK co-expressed in E. coli BL21(DE3) (two-cassette pET26b plasmid, IPTG); soluble fraction on cobalt TALON resin in 20 mM NaPi, 300 mM NaCl, 10 mM imidazole, pH 8.0, eluted with 300 mM imidazole; Coomassie SDS-PAGE and anti-FLAG western blot of purified fractions.
For assay [11], the target named is T1, CcmK1-His4 (Synechocystis sp. PCC6803 CcmK1, C-ter His4 tag) (Synechocystis sp. PCC6803). The assay can be described thus: SEC; TALON-purified co-expressed samples; Beckman Ultraspherogel SEC2000, 20 mM Tris-HCl, 300 mM NaCl, pH 7, 1 mL/min; both purified.
Assay [12] addresses T2, CcmK2-His4 (Synechocystis sp. PCC6803 CcmK2, C-ter His4 tag) (Synechocystis sp. PCC6803). Briefly: pull-down; four CcmK with His4, StrepTag, FLAG and HA tags co-expressed in E. coli BL21(DE3) (four-cassette plasmid, IPTG or auto-induction); TALON purification; Coomassie and western blots with streptactin-AP, anti-FLAG, anti-HA.
Assay [13] deals with T1, CcmK1-His4 (Synechocystis sp. PCC6803 CcmK1, C-ter His4 tag) (Synechocystis sp. PCC6803). The assay is described as above.
Assay [14] deals with T5, His6-tagged CcmK4 (Synechococcus elongatus PCC7942), control for homo-hexamers (Synechococcus elongatus PCC7942) (UniProt Q31RK2).
T5 sequence: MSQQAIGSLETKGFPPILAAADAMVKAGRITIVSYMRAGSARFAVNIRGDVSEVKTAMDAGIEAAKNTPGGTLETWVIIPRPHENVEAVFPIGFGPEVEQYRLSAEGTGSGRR
The assay can be described thus: pull-down; Syn7942 CcmK3 and CcmK4 with His6 and FLAG tags co-expressed in E. coli (IPTG 200 uM or auto-induction); TALON purification; Coomassie SDS-PAGE and anti-FLAG western blot.

B1: CcmK1-FLAG (Synechocystis sp. PCC6803 CcmK1, C-ter FLAG tag) (protein, UniProt P72760 1-111)
chain: MSIAVGMIETLGFPAVVEAADSMVKAARVTLVGYEKIGSGRVTVIVRGDVSEVQASVTAGIENIRRVNGGEVLSNHIIARPHENLEYVLPIRYTEAVEQFREIVNPSIIRR
B1: the binding result in [1] and in assay [2] was “binds” each time.

B2: CcmK3-FLAG (Synechococcus elongatus PCC7942 CcmK3, C-ter FLAG tag) (protein, UniProt Q31RK3 1-102)
chain: MPIAVGTIQTLGFPPIIAAADAMVKAARVTITQYGLAESAQFFVSVRGPVSEVETAVEAGLKAVAETEGAELINYIVIPNPQENVETVMPIDFTAESEPFRS
As for B2, the binding entry in assay [3] and in [4] was “binds” throughout.

B3: CcmK3-FLAG (Synechocystis sp. PCC6803 CcmK3, C-ter FLAG tag) (protein, UniProt P73406 1-103)
chain: MPQAVGVIQTLGFPSVLAAADAMLKGGRVTLVYYDLAERGNFVVAIRGPVSEVNLSMKMGLAAVNESVMGGEIVSHYIVPNPPENVLAVLPVEYTEKVARFRT
As for B3, the binding entry in assay [5], in [6], in [7], in assay [8], in [9] and in [10] was “binds” each time.

B4: FLAG-CcmK3 (Synechocystis sp. PCC6803 CcmK3, N-ter FLAG tag) (protein, UniProt P73406 1-103)
chain: MPQAVGVIQTLGFPSVLAAADAMLKGGRVTLVYYDLAERGNFVVAIRGPVSEVNLSMKMGLAAVNESVMGGEIVSHYIVPNPPENVLAVLPVEYTEKVARFRT
Take B4: the binding entry is “binds” in [7] and “binds weakly” in assay [10].

B5: CcmK2-FLAG (Synechocystis sp. PCC6803 CcmK2, C-ter FLAG tag) (protein, UniProt P72761 1-103)
chain: MSIAVGMIETRGFPAVVEAADSMVKAARVTLVGYEKIGSGRVTVIVRGDVSEVQASVSAGIEAANRVNGGEVLSTHIIARPHENLEYVLPIRYTEEVEQFRTY
As for B5, the binding result in assay [11], in [12], in assay [1] and in assay [2] was “binds” throughout.

B6: CcmK2-HA (Synechocystis sp. PCC6803 CcmK2, HA tag) (protein, UniProt P72761 1-103)
chain: MSIAVGMIETRGFPAVVEAADSMVKAARVTLVGYEKIGSGRVTVIVRGDVSEVQASVSAGIEAANRVNGGEVLSTHIIARPHENLEYVLPIRYTEEVEQFRTY
In the case of B6, the binding entry in [12] is “binds”.

B7: CcmK2-StrepTag (Synechocystis sp. PCC6803 CcmK2, StrepTag) (protein, UniProt P72761 1-103)
chain: MSIAVGMIETRGFPAVVEAADSMVKAARVTLVGYEKIGSGRVTVIVRGDVSEVQASVSAGIEAANRVNGGEVLSTHIIARPHENLEYVLPIRYTEEVEQFRTY
As for B7, the binding result in assay [13] and in assay [12] was “binds” each time.

B8: FLAG-tagged CcmK4 (Synechococcus elongatus PCC7942), control for homo-hexamers (protein, UniProt Q31RK2 1-113)
chain: MSQQAIGSLETKGFPPILAAADAMVKAGRITIVSYMRAGSARFAVNIRGDVSEVKTAMDAGIEAAKNTPGGTLETWVIIPRPHENVEAVFPIGFGPEVEQYRLSAEGTGSGRR
As for B8, the binding result in [14] was “binds”.
